Assay [1] concerns the target T1, cytoplasmic domain of Zmax1 (LRP5), yeast two hybrid bait (Homo sapiens (Human)) (UniProt O75197).
T1 sequence: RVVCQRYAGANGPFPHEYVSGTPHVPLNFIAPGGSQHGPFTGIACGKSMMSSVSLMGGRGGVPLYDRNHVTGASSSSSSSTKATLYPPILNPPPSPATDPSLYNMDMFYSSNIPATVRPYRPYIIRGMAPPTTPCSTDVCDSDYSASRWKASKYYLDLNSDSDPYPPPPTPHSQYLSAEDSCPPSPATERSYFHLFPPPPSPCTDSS
Description: yeast two hybrid.

For assay [2], the target named is T1, cytoplasmic domain of Zmax1 (LRP5), yeast two hybrid bait (Homo sapiens (Human)). Description: yeast two hybrid; bait: cytoplasmic domain of Zmax1 (LRP5); prey cDNA libraries (brain, HeLa, TE85).
The target is the same in assay [3]. Description: yeast two hybrid, three prey libraries.
For assay [4], the target named is T2, LRP5 ligand binding domain bait (human) (UniProt O75197).
T2 sequence: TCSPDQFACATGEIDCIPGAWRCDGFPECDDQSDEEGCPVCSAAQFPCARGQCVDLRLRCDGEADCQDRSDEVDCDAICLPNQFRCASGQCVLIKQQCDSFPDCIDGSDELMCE
Description: yeast two hybrid minimum interaction domain mapping with LRP5 LBD baits.

For assay [5], the target named is T2, LRP5 ligand binding domain bait (human). Description: yeast two hybrid.

These are yes or no findings as the source states them, for the method shown. Some binding calls cover weakened binding; strength is not graded here.

Turning to Axin (from UniProt O15169 1-862), the binding entry in assay [1], in assay [2] and in assay [3] was “binds” in each case.

Regarding “TRIO (GTPase) (from UniProt O75962 60-3097)”, the binding result in assay [1] and in assay [2] was “binds” throughout.

Consider “cytosolic thyroid hormone-binding protein (from UniProt P14618 2-531)”, for which the binding result in assay [2] and in assay [3] was “binds” each time.

B1: human Dkk-1 (ligand, UniProt O94907 32-266, looked up)
chain: TLNSVLNSNAIKNLPPPLGGAAGHPGSAVSAAPGILYPGGNKYQTIDNYQPYPCAEDEECGTDEYCASPTRGGDAGVQICLACRKRRKRCMRHAMCCPGNYCKNGICVSSDQNHFRGEIEETITESFGNDHSTLDGYSRRTTLSSKMYHTKGQEGSVCLRSSDCASGLCCARHFWSKICKPVLKEGQVCTKHRRKGSHGLEIFQRCYCGEGLSCRIQKDHHQASNSSRLHTCQRH
Take B1: the binding result in assay [4] and in assay [5] was “binds” each time.

The values are drawn from patent US20050070699A1.
